# Measurements reported in PubChem BioAssay AID504784 (Drosophila RNAi Screening Center, 2011)
# Test: 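Genome-wide knock-down for genes giving too much or too little stored lipid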 (primary screen)
# System: Drosophila Kc167 embryonic cells
# Reagents: long dsRNA against Drosophila genes, about 250 ng dsRNA per well
# Time to read-out: 4 days
# Conditions: cells fed 400 µM oleic acid bound to BSA
# Detection: 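Cells imaged and segmented; ratio of lipid droplet area to nuclear area, log-transformed, then normalised as a B-score over the screen; higher means more stored lipid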
# Scale: droplet/nuclear area B-score: higher = more stored lipid (overstorage)
# In all, the deposit lists about 17,000 reagents; this is a random part of those with a known target gene and a result. 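Each column is one replicate's B-score; the combined score over replicates was not deposited, so single values may mislead.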 Reagents against one gene are numbered here.
gene,dsRNA no.,"droplet/nuclear area B-score, replicate 1","droplet/nuclear area B-score, replicate 2","droplet/nuclear area B-score, replicate 3"
mRpL24,1,4.53,1.76,
eIF4E1,1,1.81,0.145,
CG10576,1,0.000199,0.978,
CG4793,1,0.273,0.417,
ArfGAP3,1,0.0701,-0.0632,1.34
beat-IIb,1,-0.221,-2.17,
beat-IIb,2,-0.875,0.149,
beat-IIb,3,-0.199,-1.82,
CG32132 (retired record),1,-5.3,1.12,
CG32132 (retired record),2,1.17,-0.188,
CG3955,1,-0.384,1.05,
Phax,1,0.209,-0.397,
smo,1,0.041,1.44,
SmB,1,-3.13,-2.45,
Gtpx,1,-1.16,0.309,
Gtpx,2,-0.0261,0.703,
Uba4,1,-1.63,1,
CG2926,1,0.163,-1.37,

The list goes on (3 carried over from the part before).
gene,dsRNA no.,"droplet/nuclear area B-score, replicate 1","droplet/nuclear area B-score, replicate 2","droplet/nuclear area B-score, replicate 3"
Gtpx,2,-0.0261,0.703,
Uba4,1,-1.63,1,
CG2926,1,0.163,-1.37,
metro,1,-1.72,,
metro,2,-1.01,1.54,
CG1941,1,0.429,-0.685,
CG11007,1,,-0.457,
CG4098,1,-0.834,-0.485,
inaC,1,-0.0192,4.11,
CG18284,1,-1.63,0.0441,
CG18284,2,2.19,-1.7,
CRIF,1,3.34,3.85,
obst-E,1,-0.135,-0.172,
CG2278,1,0.676,-0.165,
Zdhhc8,1,-0.617,-1.33,-0.389
Zdhhc8,2,0.147,-1.48,0.45
CG10481,1,-1.62,1.3,
CG6179,1,3.89,4.2,
skd,1,1.56,0.461,
